The list shows a part of the results.
Compound: CC1Cc2ccccc2N1C(=O)C1CCCN(C1)C(=O)CCl (mixture of isomers) [TRIM25 ligand 11 (diastereomer mixture)]
Experiment: probe-labelled cysteine peptide fold change vs DMSO (competition) (log2 fold change); higher = less target engagement (more negative = stronger competition)
Conditions: THP-1, incubation time: 4 h
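Also: competitive chemoproteomic profiling in live THP-1 cells with an iodoacetamide desthiobiotin (IA-DTB) probe, comparing probe-labelled peptide intensities in compound-treated cells against DMSO-treated controls.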

By UniProt entry, the sequences of proteins in these tests, tags left out. Where a name states a change or a piece, a line headed by the entry shows the natural chain unless it says otherwise.
UniProt O43396: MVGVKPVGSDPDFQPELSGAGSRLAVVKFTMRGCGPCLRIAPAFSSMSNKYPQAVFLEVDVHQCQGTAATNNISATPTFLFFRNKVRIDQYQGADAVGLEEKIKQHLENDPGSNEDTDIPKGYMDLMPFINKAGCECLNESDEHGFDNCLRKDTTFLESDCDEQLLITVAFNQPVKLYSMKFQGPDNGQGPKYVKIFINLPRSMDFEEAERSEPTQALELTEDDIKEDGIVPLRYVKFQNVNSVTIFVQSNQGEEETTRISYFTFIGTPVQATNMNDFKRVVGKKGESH
UniProt Q8NBS9: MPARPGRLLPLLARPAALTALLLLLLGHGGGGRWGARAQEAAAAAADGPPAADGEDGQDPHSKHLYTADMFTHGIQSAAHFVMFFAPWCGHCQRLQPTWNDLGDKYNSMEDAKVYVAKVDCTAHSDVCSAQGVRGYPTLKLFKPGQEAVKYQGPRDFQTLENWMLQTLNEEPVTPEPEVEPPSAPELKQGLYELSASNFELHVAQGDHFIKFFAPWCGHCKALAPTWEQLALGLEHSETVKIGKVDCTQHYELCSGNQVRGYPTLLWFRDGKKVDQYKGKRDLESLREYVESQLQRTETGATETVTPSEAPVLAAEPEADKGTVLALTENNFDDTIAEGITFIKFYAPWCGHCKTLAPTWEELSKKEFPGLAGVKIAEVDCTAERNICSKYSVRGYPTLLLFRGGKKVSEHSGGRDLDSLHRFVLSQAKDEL
UniProt Q9BZF9: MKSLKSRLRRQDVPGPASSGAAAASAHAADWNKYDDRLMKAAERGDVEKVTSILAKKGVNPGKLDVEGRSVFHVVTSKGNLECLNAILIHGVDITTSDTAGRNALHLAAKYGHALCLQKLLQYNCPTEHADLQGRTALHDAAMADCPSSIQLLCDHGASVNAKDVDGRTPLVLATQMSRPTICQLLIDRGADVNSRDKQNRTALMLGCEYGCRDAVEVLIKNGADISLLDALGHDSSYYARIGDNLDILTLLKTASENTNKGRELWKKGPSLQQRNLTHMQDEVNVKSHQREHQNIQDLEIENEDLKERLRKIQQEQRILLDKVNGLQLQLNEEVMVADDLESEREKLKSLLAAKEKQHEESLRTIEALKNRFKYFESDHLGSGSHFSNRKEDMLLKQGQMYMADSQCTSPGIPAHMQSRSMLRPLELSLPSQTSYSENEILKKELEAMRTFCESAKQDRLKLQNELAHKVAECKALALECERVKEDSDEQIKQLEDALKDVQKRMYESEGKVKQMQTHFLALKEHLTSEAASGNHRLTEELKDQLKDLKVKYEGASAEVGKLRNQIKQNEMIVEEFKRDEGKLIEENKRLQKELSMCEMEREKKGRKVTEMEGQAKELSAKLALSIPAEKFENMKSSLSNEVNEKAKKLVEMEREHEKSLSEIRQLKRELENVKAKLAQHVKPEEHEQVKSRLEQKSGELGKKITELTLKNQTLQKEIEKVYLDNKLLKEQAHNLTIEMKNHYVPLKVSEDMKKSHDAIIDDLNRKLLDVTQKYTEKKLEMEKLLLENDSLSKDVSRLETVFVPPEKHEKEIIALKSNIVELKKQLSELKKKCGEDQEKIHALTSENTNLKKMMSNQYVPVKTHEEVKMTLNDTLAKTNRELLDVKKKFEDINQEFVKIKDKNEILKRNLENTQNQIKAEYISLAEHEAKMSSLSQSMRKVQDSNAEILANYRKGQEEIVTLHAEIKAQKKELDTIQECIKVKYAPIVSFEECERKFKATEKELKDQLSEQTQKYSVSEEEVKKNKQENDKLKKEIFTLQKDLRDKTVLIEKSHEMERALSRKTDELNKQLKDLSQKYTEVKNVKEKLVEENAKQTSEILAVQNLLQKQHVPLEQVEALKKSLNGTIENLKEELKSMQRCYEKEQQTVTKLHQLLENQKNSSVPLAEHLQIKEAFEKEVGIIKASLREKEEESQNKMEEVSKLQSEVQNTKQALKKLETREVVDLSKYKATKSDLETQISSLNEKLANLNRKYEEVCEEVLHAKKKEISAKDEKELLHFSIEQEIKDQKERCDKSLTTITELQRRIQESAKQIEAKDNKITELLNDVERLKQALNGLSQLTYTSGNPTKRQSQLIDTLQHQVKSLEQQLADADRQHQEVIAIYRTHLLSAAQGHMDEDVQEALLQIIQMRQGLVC
UniProt Q9UBT2: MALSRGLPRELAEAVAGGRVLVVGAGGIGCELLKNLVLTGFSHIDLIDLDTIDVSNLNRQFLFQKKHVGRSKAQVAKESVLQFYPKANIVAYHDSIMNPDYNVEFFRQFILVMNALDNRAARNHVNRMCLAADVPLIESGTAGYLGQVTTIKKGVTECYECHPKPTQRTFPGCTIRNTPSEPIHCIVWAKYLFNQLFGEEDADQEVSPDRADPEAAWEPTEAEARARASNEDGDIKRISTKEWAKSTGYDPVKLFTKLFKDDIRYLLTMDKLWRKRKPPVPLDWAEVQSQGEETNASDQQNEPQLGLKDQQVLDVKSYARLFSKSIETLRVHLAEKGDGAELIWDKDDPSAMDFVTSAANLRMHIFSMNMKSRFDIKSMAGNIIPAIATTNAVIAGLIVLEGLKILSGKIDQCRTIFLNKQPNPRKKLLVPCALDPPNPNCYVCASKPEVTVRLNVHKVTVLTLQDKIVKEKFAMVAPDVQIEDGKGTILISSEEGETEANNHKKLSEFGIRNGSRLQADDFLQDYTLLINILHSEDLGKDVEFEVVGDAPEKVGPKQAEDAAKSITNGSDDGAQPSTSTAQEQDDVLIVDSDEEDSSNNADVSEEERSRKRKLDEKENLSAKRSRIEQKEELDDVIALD
UniProt Q9BZL1: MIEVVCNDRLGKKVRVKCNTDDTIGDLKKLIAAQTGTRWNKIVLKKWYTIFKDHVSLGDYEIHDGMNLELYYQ
UniProt Q3KQV9: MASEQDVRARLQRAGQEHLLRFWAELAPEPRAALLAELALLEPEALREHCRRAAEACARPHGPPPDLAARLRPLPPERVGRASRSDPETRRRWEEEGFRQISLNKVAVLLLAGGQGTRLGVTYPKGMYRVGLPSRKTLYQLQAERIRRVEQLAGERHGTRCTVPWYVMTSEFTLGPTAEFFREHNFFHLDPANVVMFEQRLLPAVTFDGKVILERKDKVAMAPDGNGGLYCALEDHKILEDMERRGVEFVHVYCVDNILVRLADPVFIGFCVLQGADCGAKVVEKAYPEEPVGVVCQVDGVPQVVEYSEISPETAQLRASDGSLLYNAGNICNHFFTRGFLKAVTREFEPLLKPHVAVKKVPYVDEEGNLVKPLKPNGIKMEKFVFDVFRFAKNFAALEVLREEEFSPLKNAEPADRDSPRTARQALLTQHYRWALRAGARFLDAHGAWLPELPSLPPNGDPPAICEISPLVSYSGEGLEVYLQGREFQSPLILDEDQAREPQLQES
UniProt Q5T6F2: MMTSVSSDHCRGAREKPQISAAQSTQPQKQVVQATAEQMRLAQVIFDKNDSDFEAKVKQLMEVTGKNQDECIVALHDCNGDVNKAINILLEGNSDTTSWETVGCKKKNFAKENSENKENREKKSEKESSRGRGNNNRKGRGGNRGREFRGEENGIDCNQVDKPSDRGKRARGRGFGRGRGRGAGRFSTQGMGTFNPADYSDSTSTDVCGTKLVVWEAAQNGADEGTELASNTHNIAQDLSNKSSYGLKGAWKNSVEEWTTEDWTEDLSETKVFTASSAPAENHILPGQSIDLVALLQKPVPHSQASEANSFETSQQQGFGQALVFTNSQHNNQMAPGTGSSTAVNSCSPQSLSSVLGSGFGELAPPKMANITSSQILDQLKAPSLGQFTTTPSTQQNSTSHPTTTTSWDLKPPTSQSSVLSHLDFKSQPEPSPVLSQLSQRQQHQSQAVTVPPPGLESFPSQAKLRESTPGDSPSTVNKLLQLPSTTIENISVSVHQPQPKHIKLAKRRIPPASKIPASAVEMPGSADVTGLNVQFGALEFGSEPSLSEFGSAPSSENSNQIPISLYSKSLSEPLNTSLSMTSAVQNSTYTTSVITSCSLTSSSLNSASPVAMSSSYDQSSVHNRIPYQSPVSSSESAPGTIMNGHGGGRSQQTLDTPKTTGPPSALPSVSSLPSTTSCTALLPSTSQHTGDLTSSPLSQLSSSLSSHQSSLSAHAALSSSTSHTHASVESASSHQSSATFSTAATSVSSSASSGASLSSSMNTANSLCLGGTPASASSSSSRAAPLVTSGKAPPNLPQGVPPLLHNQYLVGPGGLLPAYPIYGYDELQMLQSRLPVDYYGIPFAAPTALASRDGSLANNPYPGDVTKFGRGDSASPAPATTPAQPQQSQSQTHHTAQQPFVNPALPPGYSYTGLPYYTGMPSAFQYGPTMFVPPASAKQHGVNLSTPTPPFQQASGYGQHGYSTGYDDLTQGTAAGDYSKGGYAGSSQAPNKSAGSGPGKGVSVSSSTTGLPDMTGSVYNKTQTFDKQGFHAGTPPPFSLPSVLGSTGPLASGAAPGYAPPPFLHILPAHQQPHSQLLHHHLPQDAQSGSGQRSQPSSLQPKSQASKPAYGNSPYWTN
UniProt Q6ZT12: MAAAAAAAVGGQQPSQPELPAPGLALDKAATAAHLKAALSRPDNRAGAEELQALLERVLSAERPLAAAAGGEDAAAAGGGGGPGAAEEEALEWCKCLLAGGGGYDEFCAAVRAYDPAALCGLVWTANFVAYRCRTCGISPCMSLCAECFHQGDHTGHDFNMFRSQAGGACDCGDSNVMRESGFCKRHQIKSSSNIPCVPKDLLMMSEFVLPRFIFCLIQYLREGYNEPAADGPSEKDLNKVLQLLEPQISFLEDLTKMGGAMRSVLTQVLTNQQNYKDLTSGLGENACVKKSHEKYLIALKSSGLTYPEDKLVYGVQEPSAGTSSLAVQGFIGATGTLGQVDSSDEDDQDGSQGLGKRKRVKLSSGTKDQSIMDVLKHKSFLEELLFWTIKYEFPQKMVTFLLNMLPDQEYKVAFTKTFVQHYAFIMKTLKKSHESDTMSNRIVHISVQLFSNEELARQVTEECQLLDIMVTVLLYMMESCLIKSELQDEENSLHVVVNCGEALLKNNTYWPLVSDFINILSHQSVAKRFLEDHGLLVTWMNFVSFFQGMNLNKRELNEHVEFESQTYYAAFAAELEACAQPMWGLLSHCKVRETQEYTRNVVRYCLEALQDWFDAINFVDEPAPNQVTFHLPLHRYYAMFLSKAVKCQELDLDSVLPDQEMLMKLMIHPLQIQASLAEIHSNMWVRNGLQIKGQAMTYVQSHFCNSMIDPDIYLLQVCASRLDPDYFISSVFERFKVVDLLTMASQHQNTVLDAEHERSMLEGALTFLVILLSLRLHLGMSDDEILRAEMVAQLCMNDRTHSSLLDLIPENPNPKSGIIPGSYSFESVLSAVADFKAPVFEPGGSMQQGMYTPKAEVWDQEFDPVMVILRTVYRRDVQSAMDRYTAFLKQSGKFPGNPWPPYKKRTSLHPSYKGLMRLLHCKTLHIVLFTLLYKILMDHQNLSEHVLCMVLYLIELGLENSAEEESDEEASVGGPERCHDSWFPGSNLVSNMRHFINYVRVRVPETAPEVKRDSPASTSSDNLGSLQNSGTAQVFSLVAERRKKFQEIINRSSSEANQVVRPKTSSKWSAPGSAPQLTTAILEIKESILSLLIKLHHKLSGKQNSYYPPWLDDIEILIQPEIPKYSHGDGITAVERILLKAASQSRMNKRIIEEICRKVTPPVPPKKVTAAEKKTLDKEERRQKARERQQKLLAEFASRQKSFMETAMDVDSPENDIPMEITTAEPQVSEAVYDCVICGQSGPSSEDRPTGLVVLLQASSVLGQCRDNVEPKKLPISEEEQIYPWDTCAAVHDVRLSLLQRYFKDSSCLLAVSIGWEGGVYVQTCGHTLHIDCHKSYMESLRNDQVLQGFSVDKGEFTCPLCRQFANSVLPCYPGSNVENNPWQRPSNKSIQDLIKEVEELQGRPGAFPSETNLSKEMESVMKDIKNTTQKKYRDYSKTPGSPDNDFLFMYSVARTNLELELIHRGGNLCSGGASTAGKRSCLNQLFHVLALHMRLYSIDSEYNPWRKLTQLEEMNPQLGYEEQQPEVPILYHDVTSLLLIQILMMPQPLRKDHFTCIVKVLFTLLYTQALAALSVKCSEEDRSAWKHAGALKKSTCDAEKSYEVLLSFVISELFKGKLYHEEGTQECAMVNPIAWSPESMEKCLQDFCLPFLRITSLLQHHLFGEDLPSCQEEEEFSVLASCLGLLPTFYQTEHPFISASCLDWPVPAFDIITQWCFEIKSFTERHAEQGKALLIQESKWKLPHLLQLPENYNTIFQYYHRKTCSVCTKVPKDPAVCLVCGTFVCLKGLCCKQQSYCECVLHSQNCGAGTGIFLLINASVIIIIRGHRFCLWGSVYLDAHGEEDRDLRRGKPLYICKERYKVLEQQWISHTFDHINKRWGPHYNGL
UniProt P60604: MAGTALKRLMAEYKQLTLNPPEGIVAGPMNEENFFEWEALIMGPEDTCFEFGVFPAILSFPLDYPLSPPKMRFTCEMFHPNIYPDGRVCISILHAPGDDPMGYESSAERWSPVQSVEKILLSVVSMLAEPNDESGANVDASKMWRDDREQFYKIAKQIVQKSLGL

Target	probe-labelled cysteine peptide fold change (10 µM)	probe-labelled cysteine peptide fold change (50 µM)
UBA6_A0AVT1_17_MEGSEPVAAHQGEEASCSSWGTGSTNK	-0.163	-0.534
UBR4_Q5T4S7_4890_KQQGYSTVSHFNIVHYDCHLAAVR (UniProt Q5T4S7)	-0.0918	-0.0996
UBAP2L_Q14157_75_NQDECVIALHDCNGDVNR (UniProt Q14157)	-0.188	-0.237
U2AF2_P26368_464_YCDPDSYHRR (UniProt P26368)	-0.205	-0.00812
UBP1_Q9NZI7_409_EDLVQICGAADGIR (UniProt Q9NZI7)	-0.0773	-0.11
UBE2D3_P61077_111_VLLSICSLLCDPNPDDPLVPEIAR (UniProt P61077)	0.482	–
UBR4_Q5T4S7_2688_IYMQMLLCPDPAVSFSCK (UniProt Q5T4S7)	0.0361	0.0632
UBA6_A0AVT1_231_EIFISNITQANPGIVTCLENHPHKLETGQFLTFR	0.0137	-0.118
UBE2M_P61081_95_CETMVYHPNIDLEGNVCLNILR (UniProt P61081)	-0.092	-0.0144
UBE3D_Q7Z6J8_330_VLYQPCIK (UniProt Q7Z6J8)	-0.0233	-0.00246
UBA1_P22314_1039+1040_ALVLELCCNDESGEDVEVPYVR (UniProt P22314)	0.102	0.0371
UBR1_Q8IWV7_1197+1200_IHVDLFDLESGEYLCPLCK (UniProt Q8IWV7)	-0.0282	-0.219
TXNL1_O43396_135_AGCECLNESDEHGFDNCLR (UniProt O43396)	0.221	-0.0528
UBLCP1_Q8WVY7_154_SCAETGVELMR (UniProt Q8WVY7)	0.334	-0.043
UBE3A_Q05086_843_NGPDTERLPTSHTCFNVLLLPEYSSK (UniProt Q05086)	0.104	0.128
UBA6_A0AVT1_473_LQNLNIFLVGCGAIGCEMLK	-0.0477	-0.112
UBASH3B_Q8TF42_135_AHNIFPHITLCQFFMCEDSK (UniProt Q8TF42)	0.0108	0.18
UBR2_Q8IWV8_837_GMYELKPECAK (UniProt Q8IWV8)	-0.0983	-0.214
UBR5_O95071_2094_NCLEVLPTK (UniProt O95071)	-0.246	0.0107
UBE2F_Q969M7_50+52_EVAELEANLPCTCK (UniProt Q969M7)	0.00463	-0.237
UBE2O_Q9C0C9_585_SNDLFPVHHLDNNEFCPGDFVVDK (UniProt Q9C0C9)	0.0368	0.0154
UBA6_A0AVT1_581_CLANLRPLLDSGTMGTK	-0.0328	-0.0957

Target	probe-labelled cysteine peptide fold change (10 µM)	probe-labelled cysteine peptide fold change (50 µM)
TXNL4A_P83876_38_FGHDWDPTCMK (UniProt P83876)	0.189	0.122
TXNDC5_Q8NBS9_353_FYAPWCGHCK (UniProt Q8NBS9)	-0.105	-0.393
UBE2I_P63279_75+93_CKFEPPLFHPNVYPSGTVCLSILEEDK (UniProt P63279)	-0.257	-0.253
TXN_P10599_32+35_LVVVDFSATWCGPCK (UniProt P10599)	-0.484	–
UBA1_P22314_494_NFAMIGLGCGEGGEIIVTDMDTIEK (UniProt P22314)	-0.202	-0.103
UBR4_Q5T4S7_3765_VYHQLMGHRPQLENLLCK (UniProt Q5T4S7)	-0.146	-0.115
UBE4A_Q14139_710_VFCNFQYAPQLAEALIK (UniProt Q14139)	-0.0315	-0.042
UACA_Q9BZF9_125_LLQYNCPTEHADLQGR (UniProt Q9BZF9)	-0.101	-0.0801
UBE2O_Q9C0C9_353_CLYVFPAK (UniProt Q9C0C9)	-0.218	-0.188
UBA6_A0AVT1_96_CQAWDLGTNFFLSEDDVVNK	-0.0178	-0.102
TYSND1_Q2T9J0_48_SPGLVLCHGGIFVPFLR (UniProt Q2T9J0)	-0.0295	0.022
UBR4_Q5T4S7_1970_EDYLAVCGLK (UniProt Q5T4S7)	0.0869	0.0514
TXNDC5_Q8NBS9_350+353_FYAPWCGHCK (UniProt Q8NBS9)	-0.0864	-0.251
UBE2T_Q9NPD8_24_ELHMLATEPPPGITCWQDK (UniProt Q9NPD8)	-0.106	-0.245
UBE2Z_Q9H832_154_CPPDYPIHPPR (UniProt Q9H832)	-0.0115	-0.0316
UBE2V2_Q15819_69_VECGPKYPEAPPSVR (UniProt Q15819)	-0.401	-0.226
UBR4_Q5T4S7_1662_LCTFTITQK (UniProt Q5T4S7)	-0.119	-0.0801
UACA_Q9BZF9_83_GNLECLNAILIHGVDITTSDTAGR (UniProt Q9BZF9)	-0.271	-0.115
UBN2_Q6ZU65_515_SGVYSHLEAFVPCNK (UniProt Q6ZU65)	0.00214	-0.0846
UBR4_Q5T4S7_2619_QLEGDCCSFITQLVNHFWK (UniProt Q5T4S7)	-0.0252	0.0219
UBA2_Q9UBT2_158+161_GVTECYECHPKPTQR (UniProt Q9UBT2)	0.139	-0.0223
UBR5_O95071_2084_CLMEVTVDR (UniProt O95071)	-0.0492	-0.103

Target	probe-labelled cysteine peptide fold change (10 µM)	probe-labelled cysteine peptide fold change (50 µM)
UBA6_A0AVT1_231_EIFISNITQANPGIVTCLENHPHK	0.0815	-0.105
UBN1_Q9NPG3_467_YQDECQAHTQAK (UniProt Q9NPG3)	0.0929	0.00441
TYW1B_Q6NUM6_581_ELVDLIPEYEIACEHEHSNCLLIAHR (UniProt Q6NUM6)	0.268	0.256
UBASH3B_Q8TF42_70_SVQAACDWLFSHVGDPFLDDPLPR (UniProt Q8TF42)	0.281	0.0133
UBR1_Q8IWV7_1577_WCADPALLNCLK (UniProt Q8IWV7)	-0.00347	0.165
TXNRD2_Q9NNW7_279_GCAPSR (UniProt Q9NNW7)	0.829	0.386
UBL5_Q9BZL1_18_CNTDDTIGDLK (UniProt Q9BZL1)	0.0262	0.203
TXNDC5_Q8NBS9_381_IAEVDCTAER (UniProt Q8NBS9)	0.0498	-0.082
UBA6_A0AVT1_311_CLIVDFSNPEAPLEIHTAMLALDQFQEK	0.173	-0.0627
TXNL1_O43396_135+137_AGCECLNESDEHGFDNCLRK (UniProt O43396)	-0.163	-0.518
UBE2E1_P51965_122+131_IYHCNINSQGVICLDILK (UniProt P51965)	0.179	0.275
UAP1L1_Q3KQV9_271+278_LADPVFIGFCVLQGADCGAK (UniProt Q3KQV9)	0.0951	0.0877
UBA2_Q9UBT2_30_VLVVGAGGIGCELLK (UniProt Q9UBT2)	-0.0223	-0.0553
UBL5_Q9BZL1_6_IEVVCNDR (UniProt Q9BZL1)	-0.0789	0.129
UAP1L1_Q3KQV9_57_AAEACARPHGPPPDLAAR (UniProt Q3KQV9)	-0.211	-0.0997
UACA_Q9BZF9_481_ALALECER (UniProt Q9BZF9)	-0.0367	0.0956
UBE2L6_O14933_86+98_IYHPNVDENGQICLPIISSENWKPCTK (UniProt O14933)	-0.249	-0.545
UBA2_Q9UBT2_129_MCLAADVPLIESGTAGYLGQVTTIK (UniProt Q9UBT2)	0.176	0.0342
UBR4_Q5T4S7_1900_VAMCVLSSPHGR (UniProt Q5T4S7)	0.121	0.27
UAP1L1_Q3KQV9_231_VAMAPDGNGGLYCALEDHK (UniProt Q3KQV9)	-0.00674	-0.0205
UBR5_O95071_1291_QTVEHCQYRPPR (UniProt O95071)	0.168	0.134
UBE2I_P63279_138_QILLGIQELLNEPNIQDPAQAEAYTIYCQNR (UniProt P63279)	0.0466	0.171

Target	probe-labelled cysteine peptide fold change (10 µM)	probe-labelled cysteine peptide fold change (50 µM)
UBAP2_Q5T6F2_71_NQDECIVALHDCNGDVNK (UniProt Q5T6F2)	-0.147	-0.158
UBA3_Q8TBC4_139_VPNCNVVPHFNK (UniProt Q8TBC4)	0.0786	-0.0206
UBR4_Q5T4S7_4146_QAACTIVEALATIPSR (UniProt Q5T4S7)	0.0371	-0.0346
UBA1_P22314_632_SIPICTLK (UniProt P22314)	-0.0494	-0.0618
UBR4_Q5T4S7_2222_HTACNEQQR (UniProt Q5T4S7)	0.141	0.0264
UBE2O_Q9C0C9_163_STDSQCGTVIDVNIDCAVK (UniProt Q9C0C9)	0.00125	0.126
UBR3_Q6ZT12_1289_KLPISEEEQIYPWDTCAAVHDVR (UniProt Q6ZT12)	0.00826	0.0925
TXNRD2_Q9NNW7_500_TVGIHPTCSEEVVK (UniProt Q9NNW7)	0.204	0.0447
UBE2G2_P60604_75_FTCEMFHPNIYPDGR (UniProt P60604)	0.0491	-0.0468
UBA1_P22314_179_VGEFCHNR (UniProt P22314)	-0.000646	0.0721
UBA6_A0AVT1_625_GHTEVIVPHLTESYNSHRDPPEEEIPFCTLK	0.249	0.0194
UBE2R2_Q712K3_93_MWHPNIYENGDVCISILHPPVDDPQSGELPSER (UniProt Q712K3)	-0.0673	-0.15
UBAP2_Q5T6F2_78_NQDECIVALHDCNGDVNK (UniProt Q5T6F2)	-0.149	-0.0293
UBR4_Q5T4S7_122_LENPDEACAVSQK (UniProt Q5T4S7)	0.0581	0.444
TXNRD2_Q9NNW7_168_ASFVDEHTVCGVAK (UniProt Q9NNW7)	0.102	0.0705
UBR4_Q5T4S7_3864_ALSVLGCGHTSSTK (UniProt Q5T4S7)	0.218	-0.151
TXNDC5_Q8NBS9_254_VDCTQHYELCSGNQVR (UniProt Q8NBS9)	0.112	-0.0342
UBR1_Q8IWV7_99_HSGAFQLCGR (UniProt Q8IWV7)	0.0396	0.0213
UBA6_A0AVT1_468+473_LQNLNIFLVGCGAIGCEMLK	0.0329	0.24

6 neighbouring entries out of the list so far:
Target	probe-labelled cysteine peptide fold change (10 µM)	probe-labelled cysteine peptide fold change (50 µM)
UBR3_Q6ZT12_1289_KLPISEEEQIYPWDTCAAVHDVR (UniProt Q6ZT12)	0.00826	0.0925
TXNRD2_Q9NNW7_500_TVGIHPTCSEEVVK (UniProt Q9NNW7)	0.204	0.0447
UBE2G2_P60604_75_FTCEMFHPNIYPDGR (UniProt P60604)	0.0491	-0.0468
UBA1_P22314_179_VGEFCHNR (UniProt P22314)	-0.000646	0.0721
UBA6_A0AVT1_625_GHTEVIVPHLTESYNSHRDPPEEEIPFCTLK	0.249	0.0194
UBE2R2_Q712K3_93_MWHPNIYENGDVCISILHPPVDDPQSGELPSER (UniProt Q712K3)	-0.0673	-0.15

Reference: the supplement of paper PMC12067093, “Discovery and optimisation of a covalent ligand for TRIM25 and its application to targeted protein ubiquitination” (Chemical Science, 2025)
